Data reported in PubChem BioAssay AID587 (National Center for Advancing Translational Sciences (NCATS), 2007).
The campaign covered roughly 59,000 compounds. About 35 (0.06%) were called active. This list was built around the results that the source calls inconclusive (neither active nor inactive); the mix of calls is not that of the screen. No stated cut-off is given here; in the data, active means max dye-equivalent concentration above about 10 nM; inconclusive means between about 1.1 nM and that limit; inactive means weaker than that.

Assay: qHTS Assay for Spectroscopic Profiling in Texas Red Spectral Region
Conditions: Compound fluorescence, Texas Red channel, 547/618 nm; hits give high values
In short: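 Texas Red-region profiling: compounds in 100 mM Tris pH 8.0 were read at 547/618 nm after 15 min at room temperature. Intensities were normalized against a six-point Texas Red standard series to give dye-equivalent concentration.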

Structure (SMILES)	max dye-equivalent concentration
O=C1NC(=O)[C@@](Cc2ccccc2)(c2cccnc2)N1	inactive
O=C(CSc1nnc(-c2ccco2)o1)NC(=O)C1COc2ccccc2O1 (centres undefined)	inconclusive: 2.1 nM
CCC(=O)N1CCc2cc(Br)cc(S(=O)(=O)NCCN3CCOCC3)c21	inconclusive: 1.2 nM
CCCCOC(=O)C(C#N)c1nc2ccccc2nc1N1CCN(Cc2ccc3c(c2)OCO3)CC1 (centres undefined)	inconclusive: 1.1 nM
O=CNCCCc1nc2ccccc2n1Cc1ccccc1	inconclusive: 1.6 nM
C/C=C/COc1nc2c(c(=O)n(C)c(=O)n2C)n1C	inconclusive: 1.7 nM
CCOc1ccccc1-n1c(SCC(=O)NC(C)CC)nnc1-c1ccoc1C (centres undefined)	inconclusive: 1.2 nM
COC(=O)c1ccccc1NC(=O)NCC1CCCO1 (centres undefined)	inconclusive: 1.2 nM
COc1nc(-c2ccc(Cl)cc2)ccc1-c1noc(-c2ccncc2)n1	inconclusive: 1.1 nM
OC[C@@H]1O[C@@H](n2cnc3c(NC4CCCC4)ncnc32)[C@@H](O)[C@H]1O	inactive
N#Cc1nc(-c2ccco2)oc1NCc1ccco1	inconclusive: 1.4 nM
CCOc1ncccc1C(=O)OCC(=O)c1c(N)n(C)c(=O)n(C)c1=O	inconclusive: 1.4 nM
O=C1N(S(=O)(=O)c2ccccc2F)C(=O)C2(CCCC2)N1S(=O)(=O)c1ccccc1F	inconclusive: 1.3 nM
CC(C)n1c(=NC(=O)c2ccco2)c(C#N)cc2c(=O)n3ccccc3cc21	inconclusive: 1.1 nM
O=c1[nH]c(SCc2cccc(Cl)c2)nc2c1CCCC2	inconclusive: 1.3 nM
C=CCN1C(=O)CN=C1Nc1cc(C)cc(C)c1	inconclusive: 1.4 nM
O=C1NC(=O)C(c2ccccc2)(c2ccccc2)N1	inactive
Cc1cc(NC(=O)CSc2ccc(Cl)cc2)no1	inconclusive: 1.3 nM
Cc1nnc(SCC(=O)N2CCN(S(=O)(=O)c3ccccc3)CC2)n1Cc1ccccc1	inconclusive: 1.5 nM
COc1ccc(C2SCCN2S(=O)(=O)c2ccccc2)cc1OC (centres undefined)	inconclusive: 1.5 nM
CCCOc1ccc2c3c(c(=O)oc2c1)CCCC3	inconclusive: 1.4 nM
Cc1nn(-c2ccccc2)c2sc(C(=O)OCC(=O)N3CCCCC3)cc12	inconclusive: 1.9 nM
O=C(NCc1ccco1)c1ccc2c(c1)C(=O)N(Cc1ccccc1)C2=O	inconclusive: 2.1 nM
O=C(COc1ncnc2ccccc12)N1CCN(S(=O)(=O)c2ccccc2)CC1	inconclusive: 1.2 nM
CSc1ccc2c(c1)[C@H](N1CCN(C)CC1)Cc1ccccc1S2	inconclusive: 1.1 nM
Cc1cc2c(=O)n(CC(=O)N3CCN(c4ccccc4)CC3)cnc2s1	inconclusive: 1.6 nM
CCn1c(SCC(=O)OCc2ccccc2)nc2c1c(=O)n(C)c(=O)n2C	inconclusive: 1.3 nM

Among those listed so far, two contain a thiophene ring, fused or not.
Structure (SMILES)	max dye-equivalent concentration
Cc1nn(-c2ccccc2)c2sc(C(=O)OCC(=O)N3CCCCC3)cc12	inconclusive: 1.9 nM
Cc1cc2c(=O)n(CC(=O)N3CCN(c4ccccc4)CC3)cnc2s1	inconclusive: 1.6 nM

Further records:

Structure (SMILES)	max dye-equivalent concentration
COc1ccc(CNc2ncncc2-c2cccc(NS(C)(=O)=O)c2)c(OC)c1	inactive
O=C(c1cnn2c(C(F)(F)F)cc(-c3ccc4c(c3)OCO4)nc12)N1CCCC1	inconclusive: 1.4 nM
CC(=O)Nc1nc(NC(C)=O)c2[nH]c(CO)nc2n1	inactive
CCn1c(CNc2ccc(OC)cc2)nnc1SCC(=O)N1CCCc2ccccc21	inconclusive: 1.3 nM
CCOc1cc(C(=O)N2CCOCC2)ccc1OCc1ccccc1	inconclusive: 1.3 nM
CC(C)OC(=O)CSc1nnc(-c2ccco2)n1N	inconclusive: 1.2 nM
COc1cccc(NC(=O)CC2(CC(=O)O)CCCC2)c1	inconclusive: 1.8 nM
Cc1ccc(S(=O)(=O)NCCOCCNS(=O)(=O)c2ccc(C)cc2)cc1	inconclusive: 2.8 nM
COCCOC(=O)c1c(C)n(C)c2ccc(OC(=O)c3cccs3)cc12	inconclusive: 1.8 nM
COc1ccccc1N1CCN(CC(=O)c2c(C)[nH]c3cc(C)ccc23)CC1	inconclusive: 1.5 nM
CC(=O)Nc1ccc(C)cc1NC(C)=O	inconclusive: 1.5 nM
O=S1(=O)N=C(SCCO)c2ccccc21	inconclusive: 1.1 nM
CCC(C)(C)NC(=O)CN(C(=O)CNS(=O)(=O)c1ccccc1)c1ccccc1	inconclusive: 1.1 nM
COc1c(N2CCNC(C)C2)c(F)cc2c(=O)c(C(=O)O)cn(C3CC3)c12 (centres undefined)	inconclusive: 1.3 nM
O=C(NCc1ccccn1)c1ccc(CS(=O)(=O)Cc2ccc(Cl)cc2)o1	inconclusive: 1.6 nM
CCOC(=O)C1C(=O)NC(N2CCOCC2)=NC1c1ccco1 (centres undefined)	inconclusive: 1.8 nM
CCc1c(C)nc2ncnn2c1N1CCCC(C(=O)NCCc2ccccc2)C1 (centres undefined)	inconclusive: 1.6 nM
Cc1ccc(C(=O)OCC(=O)Nc2sc3c(c2C#N)CCCCC3)cc1NC(=O)c1ccco1	inconclusive: 1.4 nM
O=C(CN1C2=NCCN2c2ccccc21)c1ccc2c(c1)OCO2	inconclusive: 1.7 nM
O=C(NC1CCCC1)C(c1ccc(O)cc1)N(CC1CCCO1)C(=O)C1COc2ccccc2O1 (centres undefined)	inconclusive: 2.2 nM
Brc1ccccc1-c1nnc(-c2cccnc2)o1	inconclusive: 1.3 nM
C=CCN(C(=O)c1ccccc1)c1ccc(OC)cc1	inconclusive: 2.1 nM
CC(=O)[C@@]1(O)CC[C@@H]2[C@@H]3CCC4=CC(=O)CC[C@@]4(C)[C@H]3CC[C@]21C	inconclusive: 1.2 nM
Cc1ccc(-n2nc(-c3cccs3)cc2C(=O)NCC2CCCO2)c(C)c1 (centres undefined)	inactive
CCc1nc(N2CCN(c3nc(C)cc(C)n3)CC2)c2oc3ccccc3c2n1	inconclusive: 1.1 nM
CCOc1ccccc1C1C(C(=O)OC)=C(N)OC2=C1C(=O)CCC2 (centres undefined)	inconclusive: 1.1 nM
Cc1c(C(=O)Nc2c(C)n(C)n(-c3ccccc3)c2=O)oc2ccccc12	inconclusive: 1.4 nM
